These results are taken from PMC12040169 (PLOS Biology, 2025).

Molecules are shown by their SMILES. Some of the results follow.

The test system of this assay is T1, CTL2-GFP (C. trachomatis L2/434/Bu, GFP-expressing).
T1 construct: L2/434/Bu, GFP-expressing
On the set-up: species or system HeLa; Intracellular C. trachomatis growth in HeLa cells, bulk GFP fluorescence relative to DMSO. The note with it: bulk GFP, single well; 28.5 h, 10 µM; inhibitor.
With `O=S(=O)(c1ccc(Cl)cc1)c1ccc2ccnc(N3CCCNCC3)c2c1` [CBK036416C], the “% of control remaining” value came to 129.947%.

Regarding `CCc1nc2c(N3CCC(n4nc(C)cc4C)C3)ncnc2o1` (stereo not drawn) [CBK306785], the “% of control remaining” value was determined as 92.9298%.

Turning to `Cc1c(S(=O)(=O)Nc2nnc(C(F)(F)F)s2)sc2ccc(Cl)cc12` [CBK062018], the “% of control remaining” value was 135.9%.

With `COc1ccccc1OCC(=O)N1CCC(Cn2cncn2)(C2CCCCC2)CC1` [CBK136797], the “% of control remaining” value is 109.892%.

With `O=C(Nc1cccc(Cl)c1)N1CCCC(c2nc(-c3ccccc3)c3ccccn23)C1` (stereo not drawn) [CBK047233], the “% of control remaining” value worked out at 124.057%.

In the case of `CN1CCN(C(=O)c2cccc(-n3cccn3)c2)C(c2ccccc2)C1` (stereo not drawn) [CBK282013], the “% of control remaining” value came to 124.104%.

In the case of `O=C1NCCc2c1[nH]c1c(Cl)cccc21` [CBK015762], the “% of control remaining” value was 111.6%.

On to `O=C(CCn1c(-c2ccccc2)c(-c2ccccc2)c2ccccc21)N/N=C/c1ccccc1O` [CBK262353], for which the “% of control remaining” value is 42.5931%.

In the case of `CC(=O)N1CCN(CCNc2ncnc3sc4c(c23)CCC(C)C4)CC1` (stereo not drawn) [CBK304897], the “% of control remaining” value is 109.503%.

As for `COCC(=O)N1CCN(C(=O)N2CCOCC2)C[C@@H]1C(=O)OC` [CBK289613], the “% of control remaining” value amounted to 102.44%.

Turning to `COc1cc(CN2CCN(c3cc(C)ccc3C)CC2)ccc1OCc1ccccc1` [CBK261898], the “% of control remaining” value came to 119.388%.

As for `CN(C)C(=O)C1(c2ccccc2)CCNC1` (stereo not drawn) [CBK023394C], the “% of control remaining” value is reported as 86.7587%.

Take `O=C(Nc1ccccc1)c1ccc(S(=O)(=O)N2CCC(C(=O)O)CC2)cc1` [CBK267806]: the “% of control remaining” value is given as 138.841%.

As to `C=C(Br)Cn1c(COc2cccc3ccccc23)nc2ccccc21` [CBK263373], the “% of control remaining” value was 92.1994%.

As for `CC(C)(C)NC(=O)CSc1nnc(Cc2cccc3ccccc23)n1-c1ccccc1` [CBK266039], the “% of control remaining” value was 84.2273%.

Regarding `O=C(CN1CCOCC1)Nc1ccc(Br)cc1[N+](=O)[O-]` [CBK267314], the “% of control remaining” value came to 94.2513%.

For `Cc1ccc(C2(CN3CCN(CC4CCOC4)CC3)CC2)cc1` (stereo not drawn) [CBK282479], the “% of control remaining” value was determined as 142.209%.

In the case of `COc1cc(F)ccc1-c1ccnc2[nH]c(=O)ccc12` [CBK073727], the “% of control remaining” value is on record as 114.102%.

`CCCCc1noc(C(C)S(=O)(=O)Cc2csc(CCCC)n2)n1` (stereo not drawn) [CBK305431]: the “% of control remaining” value was determined as 104.494%.

On to `CC(C)Cc1cc(CNC(=O)C(C)n2cc(Cl)cn2)on1` (stereo not drawn) [CBK281524], for which the “% of control remaining” value is 130.198%.

For the compound `Cc1ccc(C2Nc3ccccc3C3=NCCCN32)o1` (stereo not drawn) [CBK284488], the “% of control remaining” value is 59.8619%.

In the case of `CCn1cc(C(=O)O)c(=O)c2cc(F)c(N3CCN(C(=S)Nc4ccc(F)c(Cl)c4)CC3)cc21` [CBK267921], the “% of control remaining” value came to 108.993%.

Consider `CCN(CC)CCn1c2ccc(C)cc2c2nc(C)sc21` [CBK269764C], for which the “% of control remaining” value is reported as 138.113%.

As to `COc1ccc([C@@]23CCC(NC(=O)Nc4ccc(OCc5ccccc5)cc4)C[C@@H]2N(C)CC3)cc1OC` (stereo partly drawn) [CBK047551T], the “% of control remaining” value came out at 100%.

For the compound `c1coc(-c2nccnc2NCc2cccs2)c1` [CBK037340], the “% of control remaining” value is recorded as 139.237%.

With `Cn1c(=O)oc2ccccc2c1=O` [CBK015658], the “% of control remaining” value is listed as 117.834%.

With `O=C(c1cc[nH]n1)N1CCOCC1` [CBK027868], the “% of control remaining” value is 147.992%.

On to `CN(C)CCN(C)c1cncc(-c2cccs2)n1` [CBK065679], for which the “% of control remaining” value was 143.145%.

In the case of `CC(C)CN(Cc1ccc2c(c1)OCO2)C(=O)NCc1ccc2c(c1)OCO2` [CBK159071], the “% of control remaining” value came out at 116.683%.

Consider `CCN(CC)C(=O)Cc1ccc(NC(=O)NCc2cnn(C)c2)cc1` [CBK304918], for which the “% of control remaining” value amounted to 119.133%.

Consider `O=c1cc(-c2ccccc2)nc(N2CCOCC2)[nH]1` [CBK003840], for which the “% of control remaining” value is 117.097%.

For the compound `CSc1nnc(-c2cccc(C)c2)n1CC(C)C` [CBK076764T], the “% of control remaining” value was 118.453%.

Consider `O=C(NCc1ccco1)c1cnoc1-c1ccc(F)cc1` [CBK154960], for which the “% of control remaining” value is given as 92.5814%.

As to `CCOc1ccc(OC(=O)c2ccc(OC(F)(F)F)cc2)cc1` [CBK149207], the “% of control remaining” value amounted to 98.7296%.

For the compound `NS(=O)(=O)c1cc(C(=O)NCCc2ccc(F)cc2)c(Cl)cc1Cl` [CBK288512], the “% of control remaining” value was 103.097%.

Consider `O=C1CCCN1CCCNC(=O)N1CCCCC1CO` (stereo not drawn) [CBK155985], for which the “% of control remaining” value is listed as 87.8378%.

`O=C(O)CCNc1nc(Cc2ccccc2)nc2sc3c(c12)CCCC3` [CBK265345]: the “% of control remaining” value came to 110.437%.

Regarding `Cn1cnc2c1c(=O)n(CCCN1C(=O)C3(CC(=O)N(Cc4ccccc4)C3=O)c3cc(F)ccc31)c(=O)n2C` (stereo not drawn) [CBK075717], the “% of control remaining” value was found to be 220.534%.

Take `COc1ccccc1C1NC(=O)COC12CCN(Cc1ccccc1)CC2` (stereo not drawn) [CBK092265]: the “% of control remaining” value worked out at 100.113%.

Regarding `COCCn1c(CO)nnc1[C@H]1C[C@@H](NC(=O)c2ccc(O)c(F)c2)C1` [CBK307132], the “% of control remaining” value is reported as 110.924%.

Turning to `CC(CNC(=O)c1ccc([N+](=O)[O-])o1)N1CCc2sccc2C1` (stereo not drawn) [CBK297749], the “% of control remaining” value was 85.3964%.

`Cc1nn(Cc2ccccc2)c(Cl)c1C=Cc1cc(C(=O)O)c2ccccc2n1` [CBK296942]: the “% of control remaining” value was 124.628%.

For the compound `CCNC(=O)Nc1ncc(-c2cc(OC)c(OC)c(OC)c2)c2cccnc12` [CBK070635], the “% of control remaining” value worked out at 111.889%.

For the compound `O=C(/C=C/c1ccc(C(=O)Nc2cccnc2)cc1)Nc1cccnc1` [CBK265617], the “% of control remaining” value is 100%.

As to `CCCCN(C)c1c(CC)nc2ccc(C(=O)NCCc3ccccn3)cn12` [CBK145441], the “% of control remaining” value is recorded as 81.4179%.

Take `CCN(CC)C(=O)C1CCCN(C(=O)NCc2cc(C)on2)C1` (stereo not drawn) [CBK156114]: the “% of control remaining” value is 117.28%.

On to `CS(=O)(=O)N1CCN(c2ccccc2NC(=O)COc2ccc(Cl)cc2)CC1` [CBK268854], for which the “% of control remaining” value is on record as 153.838%.

Consider `COc1cc2[nH]c(=S)n(CCc3ccc(S(N)(=O)=O)cc3)c(=O)c2cc1OC` [CBK268457], for which the “% of control remaining” value worked out at 117.855%.

Regarding `NNC(=O)c1cc2ccccc2cc1NS(=O)(=O)c1ccccc1` [CBK263261], the “% of control remaining” value stood at 101.785%.

For `COc1ccc(-c2cc(NC3CCCCC3)ncn2)cc1` [CBK090904], the “% of control remaining” value is on record as 198.015%.

As to `O=C1NC2(CC3CCC2N3Cc2ccco2)Nc2ccccc21` (stereo not drawn) [CBK284446], the “% of control remaining” value amounted to 130.191%.
